Here are results for two substances from publication PMC11200093.

Chains of the proteins cited; added tags and fusions are not shown.
UniProt Q13330: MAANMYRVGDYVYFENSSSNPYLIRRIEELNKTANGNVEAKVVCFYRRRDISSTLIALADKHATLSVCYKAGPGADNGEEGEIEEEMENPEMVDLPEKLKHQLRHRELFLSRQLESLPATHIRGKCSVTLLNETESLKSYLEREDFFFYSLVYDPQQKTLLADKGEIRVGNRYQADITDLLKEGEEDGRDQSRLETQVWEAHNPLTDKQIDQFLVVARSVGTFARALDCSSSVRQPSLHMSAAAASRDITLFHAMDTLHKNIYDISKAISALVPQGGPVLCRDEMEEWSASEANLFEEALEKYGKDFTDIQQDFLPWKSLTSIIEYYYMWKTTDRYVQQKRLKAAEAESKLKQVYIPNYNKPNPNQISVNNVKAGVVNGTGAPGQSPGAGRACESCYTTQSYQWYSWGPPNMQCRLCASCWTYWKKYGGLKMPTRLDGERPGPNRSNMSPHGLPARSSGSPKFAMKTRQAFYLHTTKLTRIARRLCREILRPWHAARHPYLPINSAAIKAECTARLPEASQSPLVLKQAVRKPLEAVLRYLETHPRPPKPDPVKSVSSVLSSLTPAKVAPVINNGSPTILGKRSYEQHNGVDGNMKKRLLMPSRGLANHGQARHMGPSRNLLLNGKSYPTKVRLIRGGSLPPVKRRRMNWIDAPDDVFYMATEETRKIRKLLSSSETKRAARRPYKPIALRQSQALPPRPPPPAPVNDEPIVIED
UniProt Q13547: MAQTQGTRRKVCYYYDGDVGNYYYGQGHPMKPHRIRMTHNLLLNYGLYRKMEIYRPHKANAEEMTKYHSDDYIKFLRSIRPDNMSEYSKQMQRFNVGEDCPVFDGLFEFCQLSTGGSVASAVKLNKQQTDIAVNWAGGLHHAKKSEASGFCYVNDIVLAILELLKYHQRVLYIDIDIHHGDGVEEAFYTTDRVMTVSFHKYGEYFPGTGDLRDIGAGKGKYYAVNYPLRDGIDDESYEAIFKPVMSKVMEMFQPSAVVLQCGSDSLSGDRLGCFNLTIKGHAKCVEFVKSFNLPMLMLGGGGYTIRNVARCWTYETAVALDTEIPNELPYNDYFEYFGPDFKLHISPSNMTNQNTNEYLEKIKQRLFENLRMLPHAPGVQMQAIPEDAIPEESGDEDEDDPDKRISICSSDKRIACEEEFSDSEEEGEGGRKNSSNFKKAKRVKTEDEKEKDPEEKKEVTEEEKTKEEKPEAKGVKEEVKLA
UniProt Q92769: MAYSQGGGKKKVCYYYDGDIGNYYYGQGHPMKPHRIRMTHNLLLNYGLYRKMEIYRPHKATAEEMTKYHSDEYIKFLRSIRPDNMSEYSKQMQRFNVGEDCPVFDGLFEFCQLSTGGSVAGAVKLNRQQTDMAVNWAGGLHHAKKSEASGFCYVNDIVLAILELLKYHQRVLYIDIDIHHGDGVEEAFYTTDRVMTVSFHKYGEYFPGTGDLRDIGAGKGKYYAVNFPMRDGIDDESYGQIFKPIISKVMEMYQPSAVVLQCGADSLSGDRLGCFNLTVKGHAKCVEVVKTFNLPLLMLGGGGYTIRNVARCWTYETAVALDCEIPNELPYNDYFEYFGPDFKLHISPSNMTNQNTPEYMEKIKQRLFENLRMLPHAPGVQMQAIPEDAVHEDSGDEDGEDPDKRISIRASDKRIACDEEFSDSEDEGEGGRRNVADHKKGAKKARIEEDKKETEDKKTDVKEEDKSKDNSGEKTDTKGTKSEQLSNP

No constants are given. Whether binding was seen depends on the method and setting. In cells and extracts the contact can be indirect. Some results given as binding are weak or reduced against the parent protein; the word gives no strength.

The assay deals with metastasis associated 1 (MTA1) (human) (UniProt Q13330). Nature of the assay: co-IP; co-immunoprecipitation of MTA1, HDAC1 and HDAC2 (Figure S4D); cells, bait and antibody not told in the main text.

“histone deacetylase 1 (HDAC1) (from UniProt Q13547 1-482) (enzyme)”: the binding result is “binds”.
In the case of “HDAC2 (from UniProt Q92769 1-488) (enzyme)” it was “binds”.
